Data from article PMC10879504.
These are yes or no findings as the source states them, for the method shown. In cells and extracts the contact can be indirect. Here binding means that the protein was enriched with, or labelled near, the bait; the list need not be complete.

The chains behind the UniProt entries cited, without tags or fusion partners.
UniProt Q86TM6: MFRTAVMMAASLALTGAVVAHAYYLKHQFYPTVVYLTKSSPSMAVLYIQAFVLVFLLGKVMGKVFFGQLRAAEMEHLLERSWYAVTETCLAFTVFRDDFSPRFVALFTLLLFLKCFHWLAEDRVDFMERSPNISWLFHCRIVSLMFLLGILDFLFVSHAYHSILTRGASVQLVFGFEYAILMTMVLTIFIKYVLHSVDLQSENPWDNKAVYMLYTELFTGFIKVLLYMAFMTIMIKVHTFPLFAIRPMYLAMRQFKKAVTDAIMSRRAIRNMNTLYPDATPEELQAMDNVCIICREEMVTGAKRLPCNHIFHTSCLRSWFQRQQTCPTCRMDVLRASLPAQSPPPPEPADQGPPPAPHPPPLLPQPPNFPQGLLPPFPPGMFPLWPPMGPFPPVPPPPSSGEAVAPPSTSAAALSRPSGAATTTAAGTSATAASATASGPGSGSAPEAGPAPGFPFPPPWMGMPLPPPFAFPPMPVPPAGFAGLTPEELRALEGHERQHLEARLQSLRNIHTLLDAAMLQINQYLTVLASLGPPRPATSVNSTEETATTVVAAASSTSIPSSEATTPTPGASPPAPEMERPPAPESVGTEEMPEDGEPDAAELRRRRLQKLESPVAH

Target: HMG-CoA reductase degradation protein 1 (HRD1), endogenous (human (endogenous in Caco-2)) (UniProt Q86TM6)
Test: affinity purification with mass spectrometry; IP with anti-HRD1 antibody on Protein A/G magnetic beads from Caco-2 cells; SDS-PAGE with Coomassie staining, LC-MS/MS (Q Exactive HF-X, MaxQuant)

B1: transmembrane protein 2 (TMEM2), endogenous (protein, UniProt Q9UHN6 1-1383)
chain: MYATDSRGHSPAFLQPQNGNSRHPSGYVPGKVVPLRPPPPPKSQASAKFTSIRREDRATFAFSPEEQQAQRESQKQKRHKNTFICFAITSFSFFIALAIILGISSKYAPDENCPDQNPRLRNWDPGQDSAKQVVIKEGDMLRLTSDATVHSIVIQDGGLLVFGDNKDGSRNITLRTHYILIQDGGALHIGAEKCRYKSKATITLYGKSDEGESMPTFGKKFIGVEAGGTLELHGARKASWTLLARTLNSSGLPFGSYTFEKDFSRGLNVRVIDQDTAKILESERFDTHEYRNESRRLQEFLRFQDPGRIVAIAVGDSAAKSLLQGTIQMIQERLGSELIQGLGYRQAWALVGVIDGGSTSCNESVRNYENHSSGGKALAQREFYTVDGQKFSVTAYSEWIEGVSLSGFRVEVVDGVKLNLLDDVSSWKPGDQIVVASTDYSMYQAEEFTLLPCSECSHFQVKVKETPQFLHMGEIIDGVDMRAEVGILTRNIVIQGEVEDSCYAENQCQFFDYDTFGGHIMIMKNFTSVHLSYVELKHMGQQQMGRYPVHFHLCGDVDYKGGYRHATFVDGLSIHHSFSRCITVHGTNGLLIKDTIGFDTLGHCFFLEDGIEQRNTLFHNLGLLTKPGTLLPTDRNNSMCTTMRDKVFGNYIPVPATDCMAVSTFWIAHPNNNLINNAAAGSQDAGIWYLFHKEPTGESSGLQLLAKPELTPLGIFYNNRVHSNFKAGLFIDKGVKTTNSSAADPREYLCLDNSARFRPHQDANPEKPRVAALIDRLIAFKNNDNGAWVRGGDIIVQNSAFADNGIGLTFASDGSFPSDEGSSQEVSESLFVGESRNYGFQGGQNKYVGTGGIDQKPRTLPRNRTFPIRGFQIYDGPIHLTRSTFKKYVPTPDRYSSAIGFLMKNSWQITPRNNISLVKFGPHVSLNVFFGKPGPWFEDCEMDGDKNSIFHDIDGSVTGYKDAYVGRMDNYLIRHPSCVNVSKWNAVICSGTYAQVYVQTWSTQNLSMTITRDEYPSNPMVLRGINQKAAFPQYQPVVMLEKGYTIHWNGPAPRTTFLYLVNFNKNDWIRVGLCYPSNTSFQVTFGYLQRQNGSLSKIEEYEPVHSLEELQRKQSERKFYFDSSTGLLFLYLKAKSHRHGHSYCSSQGCERVKIQAATDSKDISNCMAKAYPQYYRKPSVVKRMPAMLTGLCQGCGTRQVVFTSDPHKSYLPVQFQSPDKAETQRGDPSVISVNGTDFTFRSAGVLLLVVDPCSVPFRLTEKTVFPLADVSRIEEYLKTGIPPRSIVLLSTRGEIKQLNISHLLVPLGLAKPAHLYDKGSTIFLGFSGNFKPSWTKLFTSPAGQGLGVLEQFIPLQLDEYGCPRATTVRRRDLELLKQASKAH
- binding: binds
